Assay results reported in publication PMC11467792.
These are yes or no findings as the source states them, for the method shown. In cells and extracts the contact can be indirect. Some entries that bind do so weakly or less than the wild type. For some of these results: Sequences can lack the tags named with a protein. Blank lines part the entries; values can stand above or below the molecule they belong to.

Chains of the proteins cited; added tags and fusions are not shown.
UniProt O15169: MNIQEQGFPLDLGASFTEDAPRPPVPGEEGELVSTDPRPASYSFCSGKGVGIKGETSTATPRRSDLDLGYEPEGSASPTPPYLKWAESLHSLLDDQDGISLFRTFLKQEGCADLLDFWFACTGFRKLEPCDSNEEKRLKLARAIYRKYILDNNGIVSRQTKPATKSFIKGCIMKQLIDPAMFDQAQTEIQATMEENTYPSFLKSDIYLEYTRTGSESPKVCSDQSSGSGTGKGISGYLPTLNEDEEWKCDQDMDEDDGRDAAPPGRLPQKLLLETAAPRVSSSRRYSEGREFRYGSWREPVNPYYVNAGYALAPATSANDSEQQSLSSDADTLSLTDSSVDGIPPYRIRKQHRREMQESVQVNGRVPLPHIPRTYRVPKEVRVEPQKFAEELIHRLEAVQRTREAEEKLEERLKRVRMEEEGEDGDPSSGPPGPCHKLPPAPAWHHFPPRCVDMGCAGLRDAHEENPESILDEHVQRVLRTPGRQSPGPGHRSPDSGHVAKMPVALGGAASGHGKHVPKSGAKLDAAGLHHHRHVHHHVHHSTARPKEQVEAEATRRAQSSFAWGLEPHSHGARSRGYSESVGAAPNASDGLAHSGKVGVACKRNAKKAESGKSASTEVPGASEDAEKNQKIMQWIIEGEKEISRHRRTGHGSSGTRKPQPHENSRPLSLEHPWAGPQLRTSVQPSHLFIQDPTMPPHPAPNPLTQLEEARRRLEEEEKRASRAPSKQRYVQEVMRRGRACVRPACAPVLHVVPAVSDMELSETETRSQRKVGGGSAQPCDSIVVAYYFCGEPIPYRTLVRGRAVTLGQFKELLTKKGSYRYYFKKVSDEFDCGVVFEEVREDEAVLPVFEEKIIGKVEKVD
UniProt P49674: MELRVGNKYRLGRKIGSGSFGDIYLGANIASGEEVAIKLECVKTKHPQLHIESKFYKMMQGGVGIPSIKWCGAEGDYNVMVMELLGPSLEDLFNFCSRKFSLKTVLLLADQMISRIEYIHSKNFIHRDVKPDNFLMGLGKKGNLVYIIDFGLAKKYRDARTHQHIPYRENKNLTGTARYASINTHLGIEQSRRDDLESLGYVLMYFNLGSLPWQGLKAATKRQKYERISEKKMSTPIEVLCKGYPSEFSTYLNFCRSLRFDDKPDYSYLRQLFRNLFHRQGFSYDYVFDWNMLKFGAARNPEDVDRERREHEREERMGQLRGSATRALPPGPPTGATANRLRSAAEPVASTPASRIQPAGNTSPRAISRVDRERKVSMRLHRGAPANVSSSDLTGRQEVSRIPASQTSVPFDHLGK

What was measured:
[1] = biological target: AXIN1 (axis inhibitor 1), endogenous (human (endogenous in HEK293T)) (UniProt O15169); experiment: co-IP; endogenous proteins, HEK293T lysate (RIPA buffer); IP with anti-AXIN1 antibody or control IgG, overnight at 4 °C
[2] = biological target: GFP-tagged CK1ε (casein kinase 1ε) (UniProt P49674); experiment: co-IP; HEK293T cells co-transfected with GFP-CK1ε and HA-SIAH1; RIPA lysate, antibody-conjugated beads overnight at 4 °C; IP with FLAG-tagged beads (Fig. 5A (so in the source)) and with GFP-tagged beads (Fig. 5B)
[3] = biological target: FLAG-tagged AXIN1 (axis inhibitor 1) (UniProt O15169); experiment: co-IP; HEK293T cells transfected with HA-SIAH1 and FLAG-AXIN1, with or without GFP-CK1ε; also in CSNK1E-deficient HEK293T cells, after SR3029 (100 nM, 24 h), and with λ-phosphatase; RIPA lysate, overnight at 4 °C

- binding [1]: binds
Molecule: CK1ε (casein kinase 1ε), endogenous (from UniProt P49674 1-416) (enzyme)

- binding [2]: binds
- binding [3]: binds
B1: HA-tagged SIAH1 (E3 ubiquitin ligase seven in absentia homolog 1) (enzyme, UniProt Q8IUQ4 1-282)
chain: MSRQTATALPTGTSKCPPSQRVPALTGTTASNNDLASLFECPVCFDYVLPPILQCQSGHLVCSNCRPKLTCCPTCRGPLGSIRNLAMEKVANSVLFPCKYASSGCEITLPHTEKADHEELCEFRPYSCPCPGASCKWQGSLDAVMPHLMHQHKSITTLQGEDIVFLATDINLPGAVDWVMMQSCFGFHFMLVLEKQEKYDGHQQFFAIVQLIGTRKQAENFAYRLELNGHRRRLTWEATPRSIHEGIATAIMNSDCLVFDTSIAQLFAENGNLGINVTISMC

- binding [1]: binds
B2: SIAH1 (E3 ubiquitin ligase seven in absentia homolog 1), endogenous (enzyme, UniProt Q8IUQ4 1-282)
chain: B1 chain
